Data on 1 sequence can be found in publication PMC5620733.

A negative result means that nothing was seen under these conditions. At least one verdict was read from the data and is not stated in words by the source.

The series concerns thrombin. The experiment in a line: fluorescence decrease on chitosan-coated Au nanostructure (aptamer release). The note with it: irrelevant DNA sequences of similar size gave negligible change (data not shown); 20 mM Tris-HCl pH 7.4, 20 mM MgCl2; chitosan-coated (1000 Da) Au nanostructure blocked with 1% BSA; 15 min; temperature not stated; commercial protein; single-stranded DNA.

With TAGTGAATGGATCGGACAGC [Random DNA 20mer], the binding result is given as “no binding”.
